Earlier results on 1 compound are cited in patent US5525347A, “Composition and methods for treating performance anxiety” (Medical University of South Carolina, priority 1995, dated 1996).

Turning to `C[N+]1(C)CCC(OC(=O)C(O)(c2ccccc2)C2CCCC2)C1` (centres unmarked) [Glycopyrrolate, 3-Hydroxyl-1,1-dimethylpyrrolidinum bromide-cyclopentylmandelate], the stability to heat entry (heat) was “stabile in light and heat”. For the same compound, the stability in light entry (light) was “stabile in light and heat”.
